Consider one substance from PMC4660212.

Amino acid sequences for entries named in this document (tags omitted). A change or cut given only in a name is not applied to a line headed by its entry.
UniProt Q13323: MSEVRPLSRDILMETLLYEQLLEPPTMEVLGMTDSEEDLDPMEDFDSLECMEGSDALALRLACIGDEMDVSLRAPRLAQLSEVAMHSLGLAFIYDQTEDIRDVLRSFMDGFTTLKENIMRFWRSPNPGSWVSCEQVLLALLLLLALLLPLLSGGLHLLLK

Results are given in words; binding and its absence hold for the method and conditions named. In cells and extracts the contact can be indirect. Some results given as binding are weak or reduced against the parent protein; the word gives no strength.

The experiment deals with T1, FATE1, as transfected for Fig. 3e (legend prints 'FATE') (UniProt Q969F0).
T1 sequence: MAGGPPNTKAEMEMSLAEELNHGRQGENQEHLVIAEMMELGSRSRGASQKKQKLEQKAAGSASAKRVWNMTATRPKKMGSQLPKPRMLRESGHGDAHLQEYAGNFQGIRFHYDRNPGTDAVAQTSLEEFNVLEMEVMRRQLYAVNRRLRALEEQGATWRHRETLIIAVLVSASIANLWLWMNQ
Description: co-IP; HEK293T cells 20 h after transfection with BIK-L61G, FATE and HA-RNF183 cDNAs; lysed in NDLB, immunoprecipitated and immunoblotted as indicated. In general terms: In western blotting, separated proteins are transferred to a membrane and probed.

On to BIK-L61G (from UniProt Q13323 1-160), for which the binding result is reported as “binds”.
